Data taken from PubChem BioAssay AID1159506, deposited by NCATS (2015).

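Luminescence from an EWS-FLI1 target-promoter (NR0B1) reporter, set against a CMV-promoter reporter, two days after silencing single genes in TC32 Ewing sarcoma cells.
Each siRNA was applied at 20 nM.
A z-score of the log NR0B1-over-CMV signal, less the median of siRNAs with the same seed; more negative means a stronger specific loss of the NR0B1 reporter.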

The strongest results of the screen are mostly left out here.
Sequences are the guide (antisense) strand, without overhang.

strand: AAACGUAUCUGUAUCCAAG
target gene: TLK1
seed-corrected z-score: -0.4434

strand: UGCAGACAAAACGCAGAUC
target gene: LOC729683
seed-corrected z-score: 0.617

strand: UUCUGUUCCGGUUUCUGGU
target gene: ARHGAP5-AS1
seed-corrected z-score: -0.7649

strand: UGACGUACGUGGUCCAAGU
target gene: FAM90A1
seed-corrected z-score: -0.3954

strand: UUCUCGAUUGACUAAUUCC
target gene: FAM184A
seed-corrected z-score: -0.9794

strand: AAAUAGAACAUGUAAAAGG
target gene: SIVA1
seed-corrected z-score: 0.8478

strand: UAUCGAUGUCUAGAAGAGC
target gene: NUBP1
seed-corrected z-score: 0.6248

strand: AUCUCGACAAACAAUCUGG
target gene: PLEKHB2
seed-corrected z-score: 0.3184

strand: AAAAGUCCUGGUAGGGUCG
target gene: GLMP
seed-corrected z-score: -0.007788

strand: UCACCUAAAAUAUUCACUG
target gene: ADNP2
seed-corrected z-score: 0.7204

strand: UAGCAGAGCACGAUGAUGC
target gene: OPN1MW
seed-corrected z-score: -0.3006

strand: UAGCGAAUCCACAAGCAGC
target gene: TLN2
seed-corrected z-score: 0.3227

strand: UAGGCUACAAACAUCACCG
target gene: TACR2
seed-corrected z-score: 0.3439

strand: UUACUUCUUCGUGUUCCGC
target gene: TMPRSS11E
seed-corrected z-score: -0.5117

strand: UGGUGUUCCAUCCCAUUCC
target gene: NYAP2
seed-corrected z-score: -1.016

strand: AAAGGUAAAGCAAGUAACU
target gene: FRAT1
seed-corrected z-score: 0.849

strand: UCUCGGAUUAGGAAGAACU
target gene: DOLPP1
seed-corrected z-score: 0.4399

strand: UACUUAAGUAGUGUAGGCA
target gene: TXNDC17
seed-corrected z-score: -1.488

strand: UCUCAAAUCAGGUUGACUG
target gene: SOX7
seed-corrected z-score: 0.07491

strand: AGUGGUAGUAGCCUCCUCC
target gene: NDUFS7
seed-corrected z-score: -0.7155

strand: UGAAUAACAACAGCGUAGG
target gene: DRAIC
seed-corrected z-score: -0.6231

strand: UUCAUCACCUCGAUAUUUC
target gene: COPS6
seed-corrected z-score: 0.369

strand: UUAUAAAUAGAUUGAACAC
target gene: PRDM16
seed-corrected z-score: -0.6256

strand: AUAGUGUCCUCUAUUAGGG
target gene: PCDHGA1
seed-corrected z-score: 1.029

strand: UCUUGUUUUGAUAAGGUUU
target gene: LECT2
seed-corrected z-score: 0.1692

strand: UUGCUGUAAACGGUGAGGG
target gene: NR6A1
seed-corrected z-score: 0.2466

strand: UGACCAUGAACUCCAGUUC
target gene: OR4F15
seed-corrected z-score: 0.1117

strand: UCUUCGGCCAGUGUUAGCA
target gene: KANK3
seed-corrected z-score: -0.2297

strand: AUUGGUAUAAAUCAACCUC
target gene: SAP30
seed-corrected z-score: 2.1

strand: UAUGAUAUCCUUGGGCCGC
target gene: CAPN11
seed-corrected z-score: -0.2387

strand: UCGUAUCUCACCAUCAUUC
target gene: REPS2
seed-corrected z-score: -0.5284

strand: UACGUAGCCUAAAUUAAGG
target gene: SH3TC2
seed-corrected z-score: -1.347

strand: UCACCGAUCAUUCCAUUCC
target gene: GRIN2A
seed-corrected z-score: 0.5148

strand: UUAUUAGAGAAAGCCAGAA
target gene: FAU
seed-corrected z-score: 1.282

strand: UACGUGACAAUUUCUCGAG
target gene: DYNC1I2
seed-corrected z-score: -0.5455

strand: UUCUUGAUCUCCAGCAUGG
target gene: PRKAG3
seed-corrected z-score: 0.4449

strand: UCCGGGAUAUCUUCCAGGC
target gene: MCRS1
seed-corrected z-score: 1.274

strand: AAUGCUAUAAUGAGUUGGG
target gene: F8
seed-corrected z-score: -0.4205

strand: UUGGGUUUGAGACGCACUC
target gene: C18orf21
seed-corrected z-score: -0.06317

strand: AAUGGGACGAUCUUCGACG
target gene: CTC1
seed-corrected z-score: -0.02606

strand: UGAUGUUCUGGUUCAUCUG
target gene: FAM81A
seed-corrected z-score: -0.426

strand: UUGUAUAGCAGGCUCAUCG
target gene: ID2
seed-corrected z-score: -0.005744

strand: UACCGGACUCACAAAGGUG
target gene: OR5M11
seed-corrected z-score: 0.2045

strand: UGCACGUCCAUCUUGAAAC
target gene: FAM96B
seed-corrected z-score: -0.04128

strand: UUAAUGGUAAAGCUUAACA
target gene: ATP5G1
seed-corrected z-score: 0.7488

strand: UACGAAUCAUGUCACUCUC
target gene: STXBP3
seed-corrected z-score: 0.3375

strand: UUUGAUUAGACAGCACGGC
target gene: HOXB9
seed-corrected z-score: 0.3043

strand: UUAGUAAGAUAUGAAAACC
target gene: ZNF695
seed-corrected z-score: -1.747

strand: UGAGCGAAUGAGUAGACUG
target gene: MEF2D
seed-corrected z-score: 0.009277

strand: UCACGAUAAGCAUCAAAGC
target gene: CASC16
seed-corrected z-score: -0.2998

strand: UUUUCAAUCUGCUUCAUAG
target gene: FAM173B
seed-corrected z-score: 0.4207

strand: UUGGGUUGCACACCACUUG
target gene: ARHGAP31
seed-corrected z-score: 1.277

strand: ACAGUAACCACAGAUGAGG
target gene: ZNF212
seed-corrected z-score: 0.5458

strand: UAAGUGAGAUGAACUGGUC
target gene: GALK1
seed-corrected z-score: 0.04843

strand: UUUCGGUCAAGGGAAUUUG
target gene: KLRK1
seed-corrected z-score: 0.7772